Record: PubChem BioAssay AID504784 (Drosophila RNAi Screening Center, 2011)
The screen tested about 17,000 reagents; shown is a random part of those with a known target gene and a result. 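Each column is one replicate's B-score; the combined score over replicates was not deposited, so single values may mislead.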 Further read-outs or replicates are left out here. Reagent sequences are not shown.

Assay: 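Search for regulators of lipid droplet storage in oleate-fed fly cells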 (primary screen)
System: Drosophila Kc167 embryonic cells
Reagent: long dsRNA against Drosophila genes, about 250 ng dsRNA per well
Duration: 4 days
Treatment: cells fed 400 µM oleic acid bound to BSA
Measurement: 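Microscope images give a droplet-to-nucleus area ratio, taken as log and converted to a screen-wide B-score; higher values mean greater lipid storage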
Scale: droplet/nuclear area B-score: higher = more stored lipid (overstorage)

With knock-down of CG12259 (GeneID 43347) [SID104194278], the screen gave droplet/nuclear area B-score, replicate 1 = -0.0955.
Silencing of CG12259 (GeneID 43347) [SID104202638] came out at: droplet/nuclear area B-score, replicate 1 = 0.728.
Depletion of glob2 (GeneID 40807) [SID104192352] resulted in: droplet/nuclear area B-score, replicate 1 = 0.677.
After knock-down of Phf7 (GeneID 33015) [SID104200484], the screen gave droplet/nuclear area B-score, replicate 1 = -0.54.
For drd (GeneID 318102) [SID104199135] the deposit lists droplet/nuclear area B-score, replicate 1 = -0.0709.
Against drd (GeneID 318102) [SID104201203], the values are droplet/nuclear area B-score, replicate 1 = -0.0384.
mRpL49 (GeneID 32242) [SID104199700] gave droplet/nuclear area B-score, replicate 1 = 0.163.
Knock-down of Sytbeta (GeneID 39630) [SID104189801] came out at: droplet/nuclear area B-score, replicate 1 = -0.368.
Knock-down of Sytbeta (GeneID 39630) [SID104190143] gave: droplet/nuclear area B-score, replicate 1 = 0.221.
With knock-down of Cpr66Cb (GeneID 38940) [SID104190561], the screen gave droplet/nuclear area B-score, replicate 1 = 0.491.
Silencing of CG31075 (GeneID 43244) [SID104195808] came out at: droplet/nuclear area B-score, replicate 1 = 2.1.
With knock-down of CG7110 (GeneID 34757) [SID104182803] the results were droplet/nuclear area B-score, replicate 1 = -0.476.
CG7110 (GeneID 34757) [SID104182804] showed droplet/nuclear area B-score, replicate 1 = 0.138.
Gr32a (GeneID 34545) [SID104182192] scored droplet/nuclear area B-score, replicate 1 = -6.18.
After knock-down of SkpB (GeneID 36298) [SID104187475], the screen gave droplet/nuclear area B-score, replicate 1 = 1.01.
For sbm (GeneID 32397) [SID104199977] the deposit lists droplet/nuclear area B-score, replicate 1 = 0.194.
After knock-down of CG5693 (GeneID 50463) [SID104182670], the screen gave droplet/nuclear area B-score, replicate 1 = -1.15.
Silencing of DUBAI (GeneID 36361) [SID104187073] came out at: droplet/nuclear area B-score, replicate 1 = 0.404.
For RtGEF (GeneID 35306) [SID104183396], the entry reads droplet/nuclear area B-score, replicate 1 = 0.871.
After knock-down of RtGEF (GeneID 35306) [SID104201743], the screen gave droplet/nuclear area B-score, replicate 1 = 0.341.
Bre1 (GeneID 38652) [SID104189534] showed droplet/nuclear area B-score, replicate 1 = -4.65.
CG14860 (GeneID 41803) [SID104194775] showed droplet/nuclear area B-score, replicate 1 = 2.44.
mRpL13 (GeneID 35145) [SID104181868] scored droplet/nuclear area B-score, replicate 1 = 2.84.
With knock-down of CG17329 (GeneID 34958) [SID104181718], the record shows droplet/nuclear area B-score, replicate 1 = -0.686.
Knock-down of CG3702 (GeneID 33628) [SID104180420] came out at: droplet/nuclear area B-score, replicate 1 = 0.136.
Depletion of CG31142 (GeneID 251610) [SID104193439] resulted in: droplet/nuclear area B-score, replicate 1 = -0.881.
With knock-down of Bet3 (GeneID 39090) [SID104190180], the record shows droplet/nuclear area B-score, replicate 1 = -1.89.
Knock-down of Tsp42Ed (GeneID 35613) [SID104185732] resulted in: droplet/nuclear area B-score, replicate 1 = -0.37.
Silencing of CG12516 (GeneID 43370) [SID104194316] gave: droplet/nuclear area B-score, replicate 1 = -0.335.
Knock-down of CG8586 (GeneID 35854) [SID104187010] resulted in: droplet/nuclear area B-score, replicate 1 = 2.7.
Depletion of POSH (GeneID 36990) [SID104187291] came out at: droplet/nuclear area B-score, replicate 1 = -0.0423.
After knock-down of CG14301 (GeneID 42235) [SID104194572], the screen gave droplet/nuclear area B-score, replicate 1 = -2.03.
Silencing of CG5382 (GeneID 42618) [SID104195578] resulted in: droplet/nuclear area B-score, replicate 1 = -0.00686.
After knock-down of Idh3b (GeneID 42586) [SID104195832], the screen gave droplet/nuclear area B-score, replicate 1 = 0.0225.
Against CG13018 (GeneID 50224) [SID104186066], the values are droplet/nuclear area B-score, replicate 1 = 0.648.
Zir (GeneID 33165) [SID104180099] showed droplet/nuclear area B-score, replicate 1 = -0.461.
CG12853 (GeneID 50220) [SID104185985] gave droplet/nuclear area B-score, replicate 1 = -1.08.
After knock-down of Mal-A6 (GeneID 246565) [SID104187025] the results were droplet/nuclear area B-score, replicate 1 = -0.495.
With knock-down of CG40045 (GeneID 3355079) [SID104201024], the screen gave droplet/nuclear area B-score, replicate 1 = -0.153.
For Marf (GeneID 31581) [SID104198121], the values are droplet/nuclear area B-score, replicate 1 = 0.341.
